Strings that start with PEPTIDE1 are HELM notation: dots part the residues, brackets hold end groups and non-standard residues.
Experiment: general procedure: Fmoc solid-phase peptide synthesis; 2-chlorotrityl resin (polystyrene crosslinked with 1-5% divinylbenzene)
Conditions: whole synthesis, HPLC-MS

Substance	final HPLC purity
PEPTIDE1{[ac].V.[Orn].Y.S.E.[D-Dab].[Hse].W.S.[tBuGly].[D-Dab]}|PEPTIDE2{[Dab].T.[Dap].[Dab].[Dab].[dL].L.[Dab].[Dab].T}$PEPTIDE1,PEPTIDE1,3:R3-12:R2|PEPTIDE1,PEPTIDE2,6:R3-1:R1|PEPTIDE2,PEPTIDE2,4:R3-10:R2$$$V2.0	77%
PEPTIDE1{[ac].V.[Orn].Y.S.E.[D-Dab].[Hse].W.S.[tBuGly].[dT]}|PEPTIDE2{[Dab].T.[Dap].[Dab].[Dab].[dL].L.[Dab].[Dab].T}$PEPTIDE1,PEPTIDE1,3:R3-12:R2|PEPTIDE1,PEPTIDE2,6:R3-1:R1|PEPTIDE2,PEPTIDE2,4:R3-10:R2$$$V2.0	82%
PEPTIDE1{[ac].[Nle].[Orn].Y.[Dap].E.[D-Dab].[Hse].W.S.[tBuGly].[dT]}|PEPTIDE2{[Dab].T.[Dap].[Dab].[Dab].[dL].L.[Dab].[Dab].T}$PEPTIDE1,PEPTIDE1,3:R3-12:R2|PEPTIDE1,PEPTIDE2,6:R3-1:R1|PEPTIDE2,PEPTIDE2,4:R3-10:R2$$$V2.0	82%
PEPTIDE1{[ac].V.[Orn].Y.S.E.[D-Dab].S.W.S.[tBuGly].[dT]}|PEPTIDE2{[Dab].T.[Dap].[Dab].[Dab].[dL].L.[Dab].[Dab].T}$PEPTIDE1,PEPTIDE1,3:R3-12:R2|PEPTIDE1,PEPTIDE2,6:R3-1:R1|PEPTIDE2,PEPTIDE2,4:R3-10:R2$$$V2.0	71%
PEPTIDE1{[ac].V.[Orn].Y.[Dap].E.[D-Dab].[Dab].W.S.V.[dT]}|PEPTIDE2{[Dab].T.[Dap].[Dab].[Dab].[dL].L.[Dab].[Dab].T}$PEPTIDE1,PEPTIDE1,3:R3-12:R2|PEPTIDE1,PEPTIDE2,6:R3-1:R1|PEPTIDE2,PEPTIDE2,4:R3-10:R2$$$V2.0	76%
PEPTIDE1{[ac].V.C.V.[Dab].E.[D-Dab].[Hse].W.S.Y.C.S.[am]}|PEPTIDE2{[Dab].T.[Dab].[Dab].[Dab].[dL].L.[Dab].[Dab].T}$PEPTIDE1,PEPTIDE1,3:R3-12:R3|PEPTIDE1,PEPTIDE2,6:R3-1:R1|PEPTIDE2,PEPTIDE2,4:R3-10:R2$$$V2.0	84%
PEPTIDE1{[Hiv].C.Y.[Dab].E.[D-Dab].S.W.S.V.C.S.[am]}|PEPTIDE2{[Dab].T.[Dap].[Dab].[Dab].[dL].L.[Dab].[Dab].T}$PEPTIDE1,PEPTIDE1,2:R3-11:R3|PEPTIDE1,PEPTIDE2,5:R3-1:R1|PEPTIDE2,PEPTIDE2,4:R3-10:R2$$$V2.0	95%
PEPTIDE1{[HOVal].C.V.[Dab].E.[D-Dab].[Hse].W.S.[tBuGly].C.[Tyrol]}|PEPTIDE2{[Dab].T.[Dab].[Dab].[Dab].[dL].L.[Dab].[Dab].T}$PEPTIDE1,PEPTIDE1,2:R3-11:R3|PEPTIDE1,PEPTIDE2,5:R3-1:R1|PEPTIDE2,PEPTIDE2,4:R3-10:R2$$$V2.0	95%
PEPTIDE1{[HOVal].[Pen].Y.[Dab].E.[D-Dab].[Hse].W.S.[tBuGly].C.[Throl]}|PEPTIDE2{[Dab].T.[Dab].[Dab].[Dab].[dL].L.[Dab].[Dab].T}$PEPTIDE1,PEPTIDE1,2:R3-11:R3|PEPTIDE1,PEPTIDE2,5:R3-1:R1|PEPTIDE2,PEPTIDE2,4:R3-10:R2$$$V2.0	78%
PEPTIDE1{[ac].V.[Orn].Y.S.E.[D-Dab].[Hse].W.S.[tBuGly].[dE]}|PEPTIDE2{[Dab].T.[Dap].[Dab].[Dab].[dL].L.[Dab].[Dab].T}$PEPTIDE1,PEPTIDE1,3:R3-12:R2|PEPTIDE1,PEPTIDE2,6:R3-1:R1|PEPTIDE2,PEPTIDE2,4:R3-10:R2$$$V2.0	77%
PEPTIDE1{V.C.Y.[Dab].E.[D-Dab].T.W.S.[tBuGly].C.S}|PEPTIDE2{[Dab].T.[Dab].[Dab].[Dab].[dL].L.[Dab].[Dab].T}$PEPTIDE1,PEPTIDE1,2:R3-11:R3|PEPTIDE1,PEPTIDE2,5:R3-1:R1|PEPTIDE2,PEPTIDE2,4:R3-10:R2$$$V2.0	92%
PEPTIDE1{[3MeButA].C.Y.[Dap].E.[D-Dab].T.W.S.[tBuGly].C.[Glyol]}|PEPTIDE2{[Dab].T.[Dab].[Dab].[Dab].[dL].L.[Dab].[Dab].T}$PEPTIDE1,PEPTIDE1,2:R3-11:R3|PEPTIDE1,PEPTIDE2,5:R3-1:R1|PEPTIDE2,PEPTIDE2,4:R3-10:R2$$$V2.0	87%
PEPTIDE1{[ac].L.[Orn].Y.[Dap].E.[D-Dab].[Hse].W.S.[tBuGly].[dT]}|PEPTIDE2{[Dab].T.[Dap].[Dab].[Dab].[dL].L.[Dab].[Dab].T}$PEPTIDE1,PEPTIDE1,3:R3-12:R2|PEPTIDE1,PEPTIDE2,6:R3-1:R1|PEPTIDE2,PEPTIDE2,4:R3-10:R2$$$V2.0	81%
PEPTIDE1{V.C.Y.[Dab].E.[D-Dab].T.W.S.[tBuGly].C.S.[am]}|PEPTIDE2{[Dab].T.[Dab].[Dab].[Dab].[dL].L.[Dab].[Dab].T}$PEPTIDE1,PEPTIDE1,2:R3-11:R3|PEPTIDE1,PEPTIDE2,5:R3-1:R1|PEPTIDE2,PEPTIDE2,4:R3-10:R2$$$V2.0	95%
PEPTIDE1{[ac].V.[Orn].Y.S.E.[D-Dab].[Hse].W.S.[tBuGly].[dY]}|PEPTIDE2{[Dab].T.[Dap].[Dab].[Dab].[dL].L.[Dab].[Dab].T}$PEPTIDE1,PEPTIDE1,3:R3-12:R2|PEPTIDE1,PEPTIDE2,6:R3-1:R1|PEPTIDE2,PEPTIDE2,4:R3-10:R2$$$V2.0	83%
PEPTIDE1{[NMeVal].C.Y.[Dap].E.[D-Dab].[Dab].W.S.[tBuGly].C.[am]}|PEPTIDE2{[Dab].T.[Dap].[Dab].[Dab].[dL].L.[Dab].[Dab].T}$PEPTIDE1,PEPTIDE1,2:R3-11:R3|PEPTIDE1,PEPTIDE2,5:R3-1:R1|PEPTIDE2,PEPTIDE2,4:R3-10:R2$$$V2.0	88%
PEPTIDE1{[ac].S.C.Y.[Dab].E.[D-Dab].[Hse].W.S.V.C.V.[am]}|PEPTIDE2{[Dab].T.[Dab].[Dab].[Dab].[dL].L.[Dab].[Dab].T}$PEPTIDE1,PEPTIDE1,3:R3-12:R3|PEPTIDE1,PEPTIDE2,6:R3-1:R1|PEPTIDE2,PEPTIDE2,4:R3-10:R2$$$V2.0	88%
PEPTIDE1{[HOVal].C.Y.[Dab].E.[D-Dab].[Hse].W.S.[tBuGly].C.[Serol]}|PEPTIDE2{[Dab].T.[Dab].[Dab].[Dab].[dL].L.[Dab].[Dab].T}$PEPTIDE1,PEPTIDE1,2:R3-11:R3|PEPTIDE1,PEPTIDE2,5:R3-1:R1|PEPTIDE2,PEPTIDE2,4:R3-10:R2$$$V2.0	88%
PEPTIDE1{[NMeVal].C.Y.[Dab].E.[D-Dab].[Hse].W.[Hse].V.C.S.[am]}|PEPTIDE2{[Dab].T.[Dab].[Dab].[Dab].[dL].L.[Dab].[Dab].T}$PEPTIDE1,PEPTIDE1,2:R3-11:R3|PEPTIDE1,PEPTIDE2,5:R3-1:R1|PEPTIDE2,PEPTIDE2,4:R3-10:R2$$$V2.0	90%
PEPTIDE1{[HOVal].C.Y.[Dab].E.[D-Dab].[Hse].W.[Hse].[tBuGly].C.[Throl]}|PEPTIDE2{[Dab].T.[Dab].[Dab].[Dab].[dL].L.[Dab].[Dab].T}$PEPTIDE1,PEPTIDE1,2:R3-11:R3|PEPTIDE1,PEPTIDE2,5:R3-1:R1|PEPTIDE2,PEPTIDE2,4:R3-10:R2$$$V2.0	87%
PEPTIDE1{[ac].Y.C.V.[Dab].E.[D-Dab].[Hse].W.S.[tBuGly].C.[Serol]}|PEPTIDE2{[Dab].T.[Dab].[Dab].[Dab].[dL].L.[Dab].[Dab].T}$PEPTIDE1,PEPTIDE1,3:R3-12:R3|PEPTIDE1,PEPTIDE2,6:R3-1:R1|PEPTIDE2,PEPTIDE2,4:R3-10:R2$$$V2.0	95%

Source: patent publication US11629171B2 (POLYPHOR AG, priority 2017, dated 2023)
